Record: PubChem BioAssay AID1259308 (NCATS, 2017)
Here is an unselected part of about 59,000 reagents. In the full data, about 1,510 (2.6%) were called active. 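Calls use total luciferase alone and ignore viability, so some active siRNAs may act by altering cell number.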 The numbers tell different reagents against one gene apart. Not all columns of the deposit are shown.

Aim: 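Genes whose loss raises luciferase production in HEK293 cells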 (primary screen)
System: human HEK293 embryonic kidney cells stably expressing firefly luciferase (HEK-CMV-Luc2-Hygro)
Knock-down reagent: single siRNA against human genes, 0.8 pmol siRNA per well
Duration: 72 h
Detection: 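Luciferase light (ONE-Glo) measured on one replicate plate set and viability (CellTiter-Glo) on the other, scaled to a negative control siRNA, with robust z-scores and luciferase per cell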
Reading the numbers: total luciferase, z-score and total luciferase, % of control: higher = more reporter protein produced; luciferase per cell, z-score: higher = more reporter output per viable cell
Rule for the call: 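Active when the median/MAD z-score for overall luciferase is greater than 3; a gene was taken forward for validation with new siRNAs if at least two of its three siRNAs passed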
Calls: active = raised luciferase; inactive = no rise

Gene	reagent no.	total luciferase, z-score	total luciferase, % of control	luciferase per cell, z-score	Outcome
PSMD7	1	-1.3	56	2.9	inactive
PSMD7	2	0.2	85.9	2.15	inactive
PSMD7	3	-0.103	79.8	2.67	inactive
RIN1	1	-1.32	55.6	-1.46	inactive
RIN1	2	1.08	103	0.0651	inactive
RIN1	3	0.492	91.7	0.552	inactive
MMRN1	1	-2.1	40.1	-2.66	inactive
MMRN1	2	1.8	118	2.12	inactive
MMRN1	3	0.663	95.1	2	inactive
PPP1R15A	1	0.314	88.1	1.14	inactive
PPP1R15A	2	-0.159	78.7	-0.678	inactive
PPP1R15A	3	-0.0549	80.8	-0.00483	inactive

Next part, starting with the last 2 of the part before.
Gene	reagent no.	total luciferase, z-score	total luciferase, % of control	luciferase per cell, z-score	Outcome
PPP1R15A	2	-0.159	78.7	-0.678	inactive
PPP1R15A	3	-0.0549	80.8	-0.00483	inactive
OR51G1	1	1.17	105	0.6	inactive
OR51G1	2	-0.138	79.1	-0.167	inactive
OR51G1	3	0.942	101	0.409	inactive
FSCN3	1	-0.927	63.5	-1.25	inactive
FSCN3	2	-2.14	39.4	-2.72	inactive
FSCN3	3	0.506	92	-0.209	inactive
DPP8	1	-0.312	75.7	-0.753	inactive
DPP8	2	-1.04	61.2	-0.484	inactive
DPP8	3	0.342	88.7	0.207	inactive
MEST	1	0.57	93.2	0.275	inactive
MEST	2	-0.935	63.3	-0.716	inactive
MEST	3	0.538	92.6	0.761	inactive
